US20220306751A1 (MYTHIC THERAPEUTICS, published 2022)
No constants are given. Whether binding was seen depends on the method and setting. Some binding calls cover weakened binding; strength is not graded here.

B1: MYT5484 (antibody, V domains shown)
VH: EVQLLESGGGLVQPGGSLRLSCAVSDYSITSGYYWNWIRQAPGKKLEWMGYISYDGSNNYNPSLKNGRITISRDTSKNTFYLQMNSLRAEDTAVYYCARGEGFYFDSWGQGTLVTVSS
VL: EIVLTQSPGTLSLSPGERATLSCKSSQSHFFGSTQKNYLAWYQQKPGQAPRLLIYWASTRESGIPDRFSGSGSGTDFTLTISRLEPEDFAVYYCQQYYNYPWTFGQGTKLEIK
B2: MYT5485 (antibody, V domains shown)
VH: EVQLLESGGGLVQPGGSLRLSCAVSDYSITSGYYWNWIRQAPGKKLEWMGYISYDGSNNYNPSLKNGRITISRDTSKNTFYLQMNSLRAEDTAVYYCARGEGFYFDSWGQGTLVTVSS
VL: EIVLTQSPGTLSLSPGERATLSCKSSQSLHFGSTQKNYLAWYQQKPGQAPRLLIYWASTRESGIPDRFSGSGSGTDFTLTISRLEPEDFAVYYCQQYYNYPWTFGQGTKLEIK
B3: MYT5486 (antibody, V domains shown)
VH: EVQLLESGGGLVQPGGSLRLSCAVSDYSITSGYYWNWIRQAPGKKLEWMGYISYDGSNNYNPSLKNGRITISRDTSKNTFYLQMNSLRAEDTAVYYCARGEGFYFDSWGQGTLVTVSS
VL: EIVLTQSPGTLSLSPGERATLSCKSSQSLFHGSTQKNYLAWYQQKPGQAPRLLIYWASTRESGIPDRFSGSGSGTDFTLTISRLEPEDFAVYYCQQYYNYPWTFGQGTKLEIK
B4: MYT5487 (antibody, V domains shown)
VH: EVQLLESGGGLVQPGGSLRLSCAVSDYSITSGYYWNWIRQAPGKKLEWMGYISYDGSNNYNPSLKNGRITISRDTSKNTFYLQMNSLRAEDTAVYYCARGEGFYFDSWGQGTLVTVSS
VL: EIVLTQSPGTLSLSPGERATLSCKSSQSLFFHSTQKNYLAWYQQKPGQAPRLLIYWASTRESGIPDRFSGSGSGTDFTLTISRLEPEDFAVYYCQQYYNYPWTFGQGTKLEIK
B5: MYT5488 (antibody, V domains shown)
VH: EVQLLESGGGLVQPGGSLRLSCAVSDYSITSGYYWNWIRQAPGKKLEWMGYISYDGSNNYNPSLKNGRITISRDTSKNTFYLQMNSLRAEDTAVYYCARGEGFYFDSWGQGTLVTVSS
VL: EIVLTQSPGTLSLSPGERATLSCKSSQSLFFGHTQKNYLAWYQQKPGQAPRLLIYWASTRESGIPDRFSGSGSGTDFTLTISRLEPEDFAVYYCQQYYNYPWTFGQGTKLEIK
B6: MYT5489 (antibody, V domains shown)
VH: EVQLLESGGGLVQPGGSLRLSCAVSDYSITSGYYWNWIRQAPGKKLEWMGYISYDGSNNYNPSLKNGRITISRDTSKNTFYLQMNSLRAEDTAVYYCARGEGFYFDSWGQGTLVTVSS
VL: EIVLTQSPGTLSLSPGERATLSCKSSQSLFFGSHQKNYLAWYQQKPGQAPRLLIYWASTRESGIPDRFSGSGSGTDFTLTISRLEPEDFAVYYCQQYYNYPWTFGQGTKLEIK
B7: MYT5493 (antibody, V domains shown)
VH: EVQLLESGGGLVQPGGSLRLSCAVSDYSITSGYYWNWIRQAPGKKLEWMGYISYDGSNNYNPSLKNGRITISRDTSKNTFYLQMNSLRAEDTAVYYCARGEGFYFDSWGQGTLVTVSS
VL: EIVLTQSPGTLSLSPGERATLSCKSSQSLFFGSTQKNHLAWYQQKPGQAPRLLIYWASTRESGIPDRFSGSGSGTDFTLTISRLEPEDFAVYYCQQYYNYPWTFGQGTKLEIK
B8: MYT5496 (antibody, V domains shown)
VH: EVQLLESGGGLVQPGGSLRLSCAVSDYSITSGYYWNWIRQAPGKKLEWMGYISYDGSNNYNPSLKNGRITISRDTSKNTFYLQMNSLRAEDTAVYYCARGEGFYFDSWGQGTLVTVSS
VL: EIVLTQSPGTLSLSPGERATLSCKSSQSLFFGSTQKNYLAWYQQKPGQAPRLLIYHASTRESGIPDRFSGSGSGTDFTLTISRLEPEDFAVYYCQQYYNYPWTFGQGTKLEIK
B9: MYT5503 (antibody, V domains shown)
VH: EVQLLESGGGLVQPGGSLRLSCAVSDYSITSGYYWNWIRQAPGKKLEWMGYISYDGSNNYNPSLKNGRITISRDTSKNTFYLQMNSLRAEDTAVYYCARGEGFYFDSWGQGTLVTVSS
VL: EIVLTQSPGTLSLSPGERATLSCKSSQSLFFGSTQKNYLAWYQQKPGQAPRLLIYWASTRESGIPDRFSGSGSGTDFTLTISRLEPEDFAVYYCHQYYNYPWTFGQGTKLEIK
B10: MYT5504 (antibody, V domains shown)
VH: EVQLLESGGGLVQPGGSLRLSCAVSDYSITSGYYWNWIRQAPGKKLEWMGYISYDGSNNYNPSLKNGRITISRDTSKNTFYLQMNSLRAEDTAVYYCARGEGFYFDSWGQGTLVTVSS
VL: EIVLTQSPGTLSLSPGERATLSCKSSQSLFFGSTQKNYLAWYQQKPGQAPRLLIYWASTRESGIPDRFSGSGSGTDFTLTISRLEPEDFAVYYCQHYYNYPWTFGQGTKLEIK
B11: MYT5505 (antibody, V domains shown)
VH: EVQLLESGGGLVQPGGSLRLSCAVSDYSITSGYYWNWIRQAPGKKLEWMGYISYDGSNNYNPSLKNGRITISRDTSKNTFYLQMNSLRAEDTAVYYCARGEGFYFDSWGQGTLVTVSS
VL: EIVLTQSPGTLSLSPGERATLSCKSSQSLFFGSTQKNYLAWYQQKPGQAPRLLIYWASTRESGIPDRFSGSGSGTDFTLTISRLEPEDFAVYYCQQHYNYPWTFGQGTKLEIK
B12: MYT5509 (antibody, V domains shown)
VH: EVQLLESGGGLVQPGGSLRLSCAVSDYSITSGYYWNWIRQAPGKKLEWMGYISYDGSNNYNPSLKNGRITISRDTSKNTFYLQMNSLRAEDTAVYYCARGEGFYFDSWGQGTLVTVSS
VL: EIVLTQSPGTLSLSPGERATLSCKSSQSLFFGSTQKNYLAWYQQKPGQAPRLLIYWASTRESGIPDRFSGSGSGTDFTLTISRLEPEDFAVYYCQQYYNYHWTFGQGTKLEIK
B13: MYT5510 (antibody, V domains shown)
VH: EVQLLESGGGLVQPGGSLRLSCAVSDYSITSGYYWNWIRQAPGKKLEWMGYISYDGSNNYNPSLKNGRITISRDTSKNTFYLQMNSLRAEDTAVYYCARGEGFYFDSWGQGTLVTVSS
VL: EIVLTQSPGTLSLSPGERATLSCKSSQSLFFGSTQKNYLAWYQQKPGQAPRLLIYWASTRESGIPDRFSGSGSGTDFTLTISRLEPEDFAVYYCQQYYNYPHTFGQGTKLEIK
B14: MYT5482 (antibody, V domains shown)
VH: EVQLLESGGGLVQPGGSLRLSCAVSDYSITSGYYWNWIRQAPGKKLEWMGYISYDGSNNYNPSLKNGRITISRDTSKNTFYLQMNSLRAEDTAVYYCARGEGFYFDSWGQGTLVTVSS
VL: EIVLTQSPGTLSLSPGERATLSCKSSHSLFFGSTQKNYLAWYQQKPGQAPRLLIYWASTRESGIPDRFSGSGSGTDFTLTISRLEPEDFAVYYCQQYYNYPWTFGQGTKLEIK
B15: MYT5483 (antibody, V domains shown)
VH: EVQLLESGGGLVQPGGSLRLSCAVSDYSITSGYYWNWIRQAPGKKLEWMGYISYDGSNNYNPSLKNGRITISRDTSKNTFYLQMNSLRAEDTAVYYCARGEGFYFDSWGQGTLVTVSS
VL: EIVLTQSPGTLSLSPGERATLSCKSSQHLFFGSTQKNYLAWYQQKPGQAPRLLIYWASTRESGIPDRFSGSGSGTDFTLTISRLEPEDFAVYYCQQYYNYPWTFGQGTKLEIK
B16: MYT5490 (antibody, V domains shown)
VH: EVQLLESGGGLVQPGGSLRLSCAVSDYSITSGYYWNWIRQAPGKKLEWMGYISYDGSNNYNPSLKNGRITISRDTSKNTFYLQMNSLRAEDTAVYYCARGEGFYFDSWGQGTLVTVSS
VL: EIVLTQSPGTLSLSPGERATLSCKSSQSLFFGSTHKNYLAWYQQKPGQAPRLLIYWASTRESGIPDRFSGSGSGTDFTLTISRLEPEDFAVYYCQQYYNYPWTFGQGTKLEIK
B17: MYT5491 (antibody, V domains shown)
VH: EVQLLESGGGLVQPGGSLRLSCAVSDYSITSGYYWNWIRQAPGKKLEWMGYISYDGSNNYNPSLKNGRITISRDTSKNTFYLQMNSLRAEDTAVYYCARGEGFYFDSWGQGTLVTVSS
VL: EIVLTQSPGTLSLSPGERATLSCKSSQSLFFGSTQHNYLAWYQQKPGQAPRLLIYWASTRESGIPDRFSGSGSGTDFTLTISRLEPEDFAVYYCQQYYNYPWTFGQGTKLEIK
B18: MYT5492 (antibody, V domains shown)
VH: EVQLLESGGGLVQPGGSLRLSCAVSDYSITSGYYWNWIRQAPGKKLEWMGYISYDGSNNYNPSLKNGRITISRDTSKNTFYLQMNSLRAEDTAVYYCARGEGFYFDSWGQGTLVTVSS
VL: EIVLTQSPGTLSLSPGERATLSCKSSQSLFFGSTQKHYLAWYQQKPGQAPRLLIYWASTRESGIPDRFSGSGSGTDFTLTISRLEPEDFAVYYCQQYYNYPWTFGQGTKLEIK
B19: MYT5494 (antibody, V domains shown)
VH: EVQLLESGGGLVQPGGSLRLSCAVSDYSITSGYYWNWIRQAPGKKLEWMGYISYDGSNNYNPSLKNGRITISRDTSKNTFYLQMNSLRAEDTAVYYCARGEGFYFDSWGQGTLVTVSS
VL: EIVLTQSPGTLSLSPGERATLSCKSSQSLFFGSTQKNYHAWYQQKPGQAPRLLIYWASTRESGIPDRFSGSGSGTDFTLTISRLEPEDFAVYYCQQYYNYPWTFGQGTKLEIK
B20: MYT5497 (antibody, V domains shown)
VH: EVQLLESGGGLVQPGGSLRLSCAVSDYSITSGYYWNWIRQAPGKKLEWMGYISYDGSNNYNPSLKNGRITISRDTSKNTFYLQMNSLRAEDTAVYYCARGEGFYFDSWGQGTLVTVSS
VL: EIVLTQSPGTLSLSPGERATLSCKSSQSLFFGSTQKNYLAWYQQKPGQAPRLLIYWHSTRESGIPDRFSGSGSGTDFTLTISRLEPEDFAVYYCQQYYNYPWTFGQGTKLEIK

The binders below were run against T1, CD123 protein (R&D Systems Catalog No. 301-R3-025/CF) (Homo sapiens (Human)) (UniProt P26951) (assay: BLI, IgG on anti-human Fc sensor, 50 nM CD123, pH 7.4 and pH 5.4).
T1 sequence: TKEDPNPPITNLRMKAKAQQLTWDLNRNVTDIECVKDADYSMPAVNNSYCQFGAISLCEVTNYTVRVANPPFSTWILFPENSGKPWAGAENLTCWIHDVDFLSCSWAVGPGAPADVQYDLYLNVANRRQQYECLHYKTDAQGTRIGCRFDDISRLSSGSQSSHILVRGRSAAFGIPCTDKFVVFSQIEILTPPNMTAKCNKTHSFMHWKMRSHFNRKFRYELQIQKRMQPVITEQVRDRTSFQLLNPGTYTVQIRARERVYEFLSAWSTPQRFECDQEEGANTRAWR

binding, binds:
B1
B2
B3
B4
B5
B6
B7
B8
B9
B10
B11
B12
B13
B14
B15
B16
B17
B18
B19
B20
